# Measured values published in PubChem BioAssay AID1671190 (National Center for Advancing Translational Sciences (NCATS), 2021).
# By UniProt entry, the sequences of proteins in these tests, tags left out. Where a name states a change or a piece, a line headed by the entry shows the natural chain unless it says otherwise.
# UniProt P18054: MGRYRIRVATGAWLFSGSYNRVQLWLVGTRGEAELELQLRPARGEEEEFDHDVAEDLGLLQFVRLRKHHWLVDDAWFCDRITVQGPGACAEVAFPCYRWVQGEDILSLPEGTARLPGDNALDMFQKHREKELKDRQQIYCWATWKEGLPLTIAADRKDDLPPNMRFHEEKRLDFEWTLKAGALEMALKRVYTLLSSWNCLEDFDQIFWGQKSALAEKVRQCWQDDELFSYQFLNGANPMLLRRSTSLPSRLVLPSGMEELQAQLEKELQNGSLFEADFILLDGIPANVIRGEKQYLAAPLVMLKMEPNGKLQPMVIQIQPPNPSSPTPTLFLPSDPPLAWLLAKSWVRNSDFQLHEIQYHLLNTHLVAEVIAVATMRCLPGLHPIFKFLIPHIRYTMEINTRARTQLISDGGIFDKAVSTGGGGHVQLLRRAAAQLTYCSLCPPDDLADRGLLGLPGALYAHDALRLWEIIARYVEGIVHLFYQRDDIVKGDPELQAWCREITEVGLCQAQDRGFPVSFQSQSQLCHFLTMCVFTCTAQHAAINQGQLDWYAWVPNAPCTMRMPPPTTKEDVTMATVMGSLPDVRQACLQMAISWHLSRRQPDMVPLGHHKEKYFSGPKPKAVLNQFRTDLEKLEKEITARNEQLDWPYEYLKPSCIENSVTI
# About 6,100 (1.1%) of roughly 580,000 compounds were called active. The inconclusive results got no clear call from the source; some entries with a clear call stand among them for comparison. The call rests on the fitted dose curve; in most records, active means well fitted inhibition curve with a large enough effect; inconclusive means small, poorly fitted or top-dose-only effect, or another doubt; inactive means no such curve, though single readings can be large or run the other way. A potency beside an inconclusive call is a rough fit, not a confirmed value.
# Target: Polyunsaturated fatty acid lipoxygenase ALOX12 (Homo sapiens) (UniProt P18054)
# Assay: Primary qHTS assay for inhibitors of human arachidonate 12S-lipoxygenase (ALOX12): Round 2
# Conditions: purified 12hLO, xylenol orange hydroperoxide absorbance; series mostly up to 108 µM
# Procedure, shortened: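 Purified human 12hLO (150 nM final) in 25 mM Hepes, 0.01% Triton X-100, pH 7.0 was preincubated 15 min at room temperature with compound. Then 40 uM arachidonic acid was added, 30 min. Hydroperoxide was read by Fe-XO absorbance ratio 573/405 nm.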
# Potency means the concentration at half of the fitted maximal effect.
row,SMILES,Potency
1,CCN(CC)C(=O)C1=C(C)N(Cc2ccc(C(C)(C)C)cc2)C(=O)C(CC(=O)NCCCN(C)C)C1 (stereo not given),"inconclusive: 44.7 µM [inhibitor, single point]"
2,CN(CCOc1ccccc1F)C(=O)c1cn(C)c2ccccc12,inactive
3,OCc1ccc(-c2nc(C3CCOC3)nn2C2CCCCC2)cc1 (stereo not given),inactive
4,CC(C)CCNC(=O)CCNC(=O)c1ccccc1,inactive
5,COc1cc(/C=N/O)ccc1OCC(=O)Nc1c(C)cc(C)cc1C,inactive
6,CN(C)c1ccc(-c2nnc([C@H]3CCN(C(=O)c4ccccn4)C3)o2)cc1,"inconclusive: 39.8 µM [inhibitor, single point]"
7,CCCCn1c(=O)[nH]c2nc3cc(NC(C)=O)ccc3nc2c1=O,inactive
8,COc1ccc(CCN(C)Cc2ccc(OC)c(OCc3ccccc3)c2)cc1OC,"inconclusive: 3.55 µM [inhibitor, full curve, poor fit]"
9,CC(=O)N1CC=C2C(C#N)=C(N)C(C#N)(C#N)C(C)C2C1 (stereo not given),inactive
10,Cc1csc(NC(=O)Cc2csc(-c3ccccc3Cl)n2)n1,inactive
11,O=C(NCc1ccco1)C(c1ccccc1)c1ccccc1,inactive
12,Cc1ccc(CCNC(=O)c2cc3cc4cc(C)ccc4nc3s2)cc1,inactive
13,COc1cccc(N2C(=O)C(CC(=O)Nc3ccc(F)cc3)N(CCC3=CCCCC3)C2=O)c1 (stereo not given),"inconclusive: 44.7 µM [inhibitor, partial curve, poor fit]"
14,Cc1sc2c(c1C)CN(CCN1CCOCC1)CN2C(=O)c1ccccc1,"inconclusive: 31.6 µM [inhibitor, partial curve, poor fit]"
15,CCCCn1c(N)c(N(CC(C)C)C(=O)C2CCN(S(=O)(=O)c3ccc(F)cc3)CC2)c(=O)[nH]c1=O,"inconclusive: 56.2 µM [inhibitor, partial curve, poor fit]"
16,O=C(NCc1cccnc1)C(=O)C1C(=O)Nc2ccccc21 (stereo not given),"inconclusive: 5.01 µM [inhibitor, full curve, poor fit]"
17,Cc1ccccc1-c1nocc1CCC(=O)O,inactive
18,COc1ccc(S(=O)(=O)NCc2cccnc2)cc1,inactive
19,CCc1nn2c(=O)cc(CN(CC)Cc3ccc(OCc4ccccc4)cc3)nc2s1,"inconclusive: 22.4 µM [inhibitor, full curve, poor fit]"
20,COC(=O)Cc1c(C)c2cc3c(c(C)c2oc1=O)OCN(CCc1ccc(F)cc1)C3,inactive
21,Cc1cccc(-n2c(C)n[nH]c2=S)c1,"inconclusive: 63.1 µM [inhibitor, partial curve, poor fit]"
22,CC(C)NC(=O)C[C@@H]1CCNC[C@@H]1Cc1cc(-c2ccc(C(C)(C)C)cc2)on1,"inconclusive: 28.2 µM [inhibitor, full curve]"
23,Cc1cccc(C)c1OCC(=O)N1CCC(c2nc3ccccc3o2)CC1,"inconclusive: 56.2 µM [inhibitor, full curve, poor fit]"

row,SMILES,Potency
1,O=C(c1ccc(-n2cnnn2)cc1O)N1CCCC(CCc2ccc(F)cc2)C1 (stereo not given),"inconclusive: 35.5 µM [inhibitor, full curve]"
2,O=C(/C(=C\c1ccc(-c2ccccc2Cl)o1)c1nc2ccccc2o1)c1ccccc1,"inconclusive: 56.2 µM [inhibitor, partial curve, poor fit]"
3,O=C(Nc1ccccc1Cl)C1CCN(Cc2cnn(-c3ccccc3)c2-n2cccc2)CC1,inactive
4,COc1ccc2c(c1)CC/C(=C/c1ccco1)C2=O,"inconclusive: 79.4 µM [inhibitor, partial curve, poor fit]"
5,COc1ccc(C)cc1NS(=O)(=O)c1ccc(NC(=O)CN(c2cc([N+](=O)[O-])ccc2C)S(C)(=O)=O)cc1,inactive
6,Cc1ccc(Nc2ccc3ccccc3c2)cc1,"inconclusive: 17.8 µM [inhibitor, partial curve, poor fit]"
7,O=C(CN1CCN(c2ccc(O)cc2)CC1)Nc1cc(S(=O)(=O)N2CCCC2)ccc1Cl,"inconclusive: 50.1 µM [inhibitor, partial curve, poor fit]"
8,Cn1cc(Cc2ccc(C(=O)N3CCOCC3)cn2)c2ccccc21,"inconclusive: 50.1 µM [inhibitor, partial curve, poor fit]"
9,CC(C)c1nnc(NC(=O)c2cc(=O)c3ccccc3o2)s1,"inconclusive: 4.47 µM [inhibitor, partial curve, poor fit]"
10,Cc1ccc(NC(=O)CNc2ccc(Cl)cc2F)cc1,"inconclusive: 44.7 µM [inhibitor, partial curve, poor fit]"
11,C/C(=N\NC(=O)c1ccccc1O)C1C(=O)c2ccccc2C1=O,inactive
12,CC(C)(C)Cc1c(-c2cccc(Br)c2)nc2ccc(Br)cn12,"inconclusive: 14.1 µM [inhibitor, full curve, poor fit]"
13,CCCOc1ccc(-c2nn(-c3ccccc3)cc2C2NC(=O)NC(C)=C2C(=O)OCC)cc1 (stereo not given),"inconclusive: 126 µM [inhibitor, partial curve, poor fit]"
14,Cc1ccc2c(c1)[C@@H]1[C@H](CO2)[C@H](c2ccccc2)[C@@]2(C)C(=O)N[C@H](C)C(=O)N12,inactive
15,CCc1ccc(-c2cc(C)no2)cc1S(=O)(=O)Nc1ccc(Cl)cn1,"inconclusive: 44.7 µM [inhibitor, partial curve, poor fit]"
16,CCCN(Cc1nc2cc(Cl)ccc2c(=O)[nH]1)C(=O)c1cc(OC)c(OC)c(OC)c1,inactive
17,Cn1c(COc2ccc(Cl)cc2)nnc1SCc1ncc(-c2ccccc2)o1,inactive
18,C=CCN(CCC(=O)NC(=O)NC)CCc1ccccc1,"inconclusive: 126 µM [inhibitor, single point]"
19,Cc1oc(-c2nc(C#N)c(NCCCN(C)C)o2)cc1S(=O)(=O)N1CCCCCC1,inactive
20,COc1ccc(-c2cc(N3CCCC(NC(=O)c4cccc(C#N)c4)C3)n[nH]2)cc1 (stereo not given),inactive
21,CC(=O)N1CCCc2cc(S(=O)(=O)N3CCCC(C(=O)NCc4ccccc4)C3)ccc21 (stereo not given),inactive
22,O=c1c(CCc2ccccc2)nc2cnc(Oc3ccccc3)nc2n1C1CC1,"inconclusive: 0.316 µM [inhibitor, full curve, poor fit]"

# Taken from the listing for reference:
row,SMILES,Potency
1,CCN(CC)C(=O)C1=C(C)N(Cc2ccc(C(C)(C)C)cc2)C(=O)C(CC(=O)NCCCN(C)C)C1 (stereo not given),"inconclusive: 44.7 µM [inhibitor, single point]"
2,CN(CCOc1ccccc1F)C(=O)c1cn(C)c2ccccc12,inactive
3,OCc1ccc(-c2nc(C3CCOC3)nn2C2CCCCC2)cc1 (stereo not given),inactive
4,CC(C)CCNC(=O)CCNC(=O)c1ccccc1,inactive
